Laboratory results from paper PMC7414696.
Results are given in words; binding and its absence hold for the method and conditions named. Binding seen in cells or lysates may run through a third protein. Some entries that bind do so weakly or less than the wild type. One block for each substance: values may come before it.

Columns and labels:
[1] = target: Endogenously expressed CAPZB2 of PC-3 cells (human (endogenous in PC-3)) (UniProt P47756); assay: proximity ligation; PC-3 cells on coverslips, transiently co-transfected or left untransfected, fixed with 4% PFA, permeabilized; Duolink In Situ Orange Starter Kit Mouse/Rabbit
[2] = target: Flag-tagged mouse Capzb2 expressed in PC-3 cells (mouse) (UniProt P47757); assay: as above
[3] = target: Flag-tagged mouse Capzb2 expressed in PC-3 cells (mouse) (UniProt P47757); assay: co-IP; PC-3 cells co-transfected with pcDNA-PIM1, His-Capza1 and Flag-Capzb2 in different combinations, lysed after 48 h (50 mM Tris pH 7.5, 100 mM NaCl, 1% NP-40, 10% glycerol, 1 mM EDTA); Flag-tagged protein precipitated with anti-Flag M2 agarose, 1 h at +4 °C, four washes; Western blotting
[4] = target: His-tagged human capping protein alpha 2 subunit (CAPZA2), bacterially produced (human) (UniProt P47755); assay: pull-down; alpha and beta subunits co-expressed in E. coli BL21 from one Duet vector; lysate (50 mM Tris-HCl pH 7.5, 250 mM NaCl, 10 mM imidazole) rotated 30 min at +4 °C with HisLink resin, washed four times, eluted with 300 mM imidazole; SDS-PAGE with Page Blue staining
[5] = target: GFP-tagged mouse Capzb2 expressed in PC-3 cells (mouse) (UniProt P47757); assay: FRET or BRET; fluorescence-lifetime imaging microscopy (FLIM) of fixed PC-3 cells co-overexpressing GFP-Capzb2 (alone or with His-Capza1) and PIM1-RFP; lifetime of GFP fluorescence; room temperature

binding [1]: binds
Substance: Endogenously expressed PIM1 of PC-3 cells (from UniProt P11309 1-313) (enzyme)

binding [2]: binds
binding [3]: binds
Substance: Human PIM1 expressed in PC-3 cells from pcDNA3.1/PIM1-V5-His (from UniProt P11309 1-313) (enzyme)

binding [4]: binds
Substance: Mouse capping protein beta 2 subunit (Capzb2), bacterially produced (from UniProt P47757-2 1-272)

binding [5]: binds
Substance: RFP-tagged human PIM1 (Tag-PIM1-RFP) expressed in PC-3 cells (from UniProt P11309 1-313) (enzyme)
